This assay addresses Perforin-2/GFP fusion protein expressed in transfected 293 cells (mouse) (UniProt A1L314). In words: negative-stain electron microscopy of trypsin-treated membranes from P2-gfp 293 cells (self-association).

The source of these data is patent US20090142768A1.

Results are given in words; binding and its absence hold for the method and conditions named. Some results given as binding are weak or reduced against the parent protein; the word gives no strength. Tags and fused reporters may be left off the sequences shown.

B1: Perforin-2/GFP fusion protein expressed in transfected 293 cells (protein, mouse, UniProt A1L314 20-713, looked up, not shown: large carriers)
chain: DKPLGETGTTGFQICKNALKLPVLEVLPGGGWDNLRNVDMGRVMDLTYTNCKTTEDGQYIIPDEVYTIPQKESNLEMNSEVLESWMNYQSTTSLSINTELALFSRVNGKFSTEFQRMKTLQVKDQAVTTRVQVRNRIYTVKTTPTSELSLGFTKALMDICDQLEKNQTKMATYLAELLILNYGTHVITSVDAGAALVQEDHVRSSFLLDNQNSQNTVTASAGIAFLNIVNFKVETDYISQTSLTKDYLSNRTNSRVQSFGGVPFYPGITLETWQKGITNHLVAIDRAGLPLHFFIKPDKLPGLPGPLVKKLSKTVETAVRHYYTFNTHPGCTNVDSPNFNFQANMDDDSCDAKVTNFTFGGVYQECTELSGDVLCQNLEQKNLLTGDFSCPPGYSPVHLLSQTHEEGYSRLECKKKCTLKIFCKTVCEDVFRVAKAEFRAYWCVAAGQVPDNSGLLFGGVFTDKTINPMTNAQSCPAGYIPLNLFESLKVCVSLDYELGFKFSVPFGGFFSCIMGNPLVNSDTAKDVRAPSLKKCPGGFSQHLAVISDGCQVSYCVKAGIFTGGSLLPVRLPPYTKPPLMSQVATNTVIVTNSETARSWIKDPQTNQWKLGEPLELRRAMTVIHGDSNGMSGGEAAGITLGVTIALGIVITLAIYGTRKYKKKEYQEIEEQESLVGSLATDATVLNGEEDPSPA
As to B1, the binding result is “binds”.
